Binding data for two substances are collected here from paper PMC10213043, “Different viral effectors suppress hormone-mediated antiviral immunity of rice coordinated by OsNPR1” (Nature Communications, 2023).

Protein sequences, listed by entry. Tags and fused reporters are not part of them.
UniProt Q336P5: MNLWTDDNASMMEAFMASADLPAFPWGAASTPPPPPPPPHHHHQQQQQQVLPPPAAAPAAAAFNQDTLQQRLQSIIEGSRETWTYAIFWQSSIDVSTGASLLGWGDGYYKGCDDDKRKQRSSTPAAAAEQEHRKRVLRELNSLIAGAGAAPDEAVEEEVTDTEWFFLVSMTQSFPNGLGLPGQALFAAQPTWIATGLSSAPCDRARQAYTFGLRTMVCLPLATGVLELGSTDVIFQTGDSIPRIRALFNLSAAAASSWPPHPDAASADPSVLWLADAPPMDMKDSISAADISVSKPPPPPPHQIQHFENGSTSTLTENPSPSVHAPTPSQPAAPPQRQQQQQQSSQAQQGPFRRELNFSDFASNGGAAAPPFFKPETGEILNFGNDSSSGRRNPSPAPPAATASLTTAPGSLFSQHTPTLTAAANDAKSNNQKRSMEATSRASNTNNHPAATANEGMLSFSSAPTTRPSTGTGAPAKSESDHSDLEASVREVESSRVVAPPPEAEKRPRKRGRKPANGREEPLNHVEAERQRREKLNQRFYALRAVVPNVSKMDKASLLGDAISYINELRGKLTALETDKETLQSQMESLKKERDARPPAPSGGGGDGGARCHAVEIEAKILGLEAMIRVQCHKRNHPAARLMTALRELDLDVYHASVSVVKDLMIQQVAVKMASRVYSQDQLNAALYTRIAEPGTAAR

Assay [1] concerns the target T1, OsNPR1-GFP (rice) (UniProt Q9FDY4).
T1 sequence: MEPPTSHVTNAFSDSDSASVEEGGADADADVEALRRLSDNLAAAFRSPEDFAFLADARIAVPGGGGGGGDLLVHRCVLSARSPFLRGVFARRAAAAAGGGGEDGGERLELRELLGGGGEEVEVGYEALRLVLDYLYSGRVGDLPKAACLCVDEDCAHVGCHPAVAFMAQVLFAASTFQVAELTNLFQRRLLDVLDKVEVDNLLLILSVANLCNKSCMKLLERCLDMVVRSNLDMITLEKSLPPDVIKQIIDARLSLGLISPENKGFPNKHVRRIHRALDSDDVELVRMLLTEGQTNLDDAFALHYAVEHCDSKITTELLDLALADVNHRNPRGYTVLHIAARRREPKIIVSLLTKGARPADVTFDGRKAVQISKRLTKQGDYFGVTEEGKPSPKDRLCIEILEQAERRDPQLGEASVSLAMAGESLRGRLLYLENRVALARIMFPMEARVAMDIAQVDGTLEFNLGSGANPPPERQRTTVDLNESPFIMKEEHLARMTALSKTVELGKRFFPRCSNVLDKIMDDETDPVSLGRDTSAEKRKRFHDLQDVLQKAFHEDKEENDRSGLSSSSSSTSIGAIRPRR
Nature of the assay: co-IP; protein competition Co-IP: two tagged proteins co-expressed in N. benthamiana leaves with or without a third protein (OsCTD-FLAG, P2-FLAG with 100 µM MG132, or OsNPR1).

Assay [2] deals with T1, OsNPR1-GFP (rice). The assay is described as follows: co-IP; transient co-expression in N. benthamiana leaves (WT or NahG transgenic), no SA added; IP lysis buffer with 10 mM DTT; anti-FLAG, GFP-trap or anti-c-Myc beads, about 2 h at 4 °C.
Assay [3] deals with T2, nYFP-OsNPR1 (rice) (UniProt Q9FDY4).
T2 sequence: T1 sequence
Nature of the assay: split reporter; BiFC in N. benthamiana leaves with or without a third protein (P2-FLAG, with or without MG132; OsNPR1-MYC).

For assay [4], the target named is T2, nYFP-OsNPR1 (rice). Nature of the assay: split reporter; BiFC: nYFP and cYFP fusions co-expressed in N. benthamiana leaves (WT or NahG transgenic), confocal microscopy at 48 h.

These are yes or no findings as the source states them, for the method shown. In cells and extracts the contact can be indirect. Some results given as binding are weak or reduced against the parent protein; the word gives no strength. Tags and fused reporters may be left off the sequences shown.

On to OsMYC2-MYC (from UniProt Q336P5 1-699), for which the binding entry with OsNPR1-GFP (rice) [1] and with OsNPR1-GFP (rice) [2] was “binds” each time.
On to OsMYC2-cYFP (from UniProt Q336P5 1-699), for which the binding result with nYFP-OsNPR1 (rice) [3] and with nYFP-OsNPR1 (rice) [4] was “binds” in each case.
